Laboratory results reported in the supplement of paper PMC12823440, “Inhibitors supercharge kinase turnover through native proteolytic circuits” (Nature, 2025).
Some of the results follow. The calls rarely recur for the same compound in another form.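 Kinases were expressed as nanoluciferase fusions in K562 cells and luminescence was read every 4 h between 2 and 18 h as percent of control, DMSO set to 100% and a positive control to 0%. A time point counts as decreased when the signal drops significantly (2 sigma). The hit call is the authors' own, does not follow from the count of time points alone, and its rule is not shown.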

The chains behind the UniProt entries cited, without tags or fusion partners.
UniProt P53350, whole entry: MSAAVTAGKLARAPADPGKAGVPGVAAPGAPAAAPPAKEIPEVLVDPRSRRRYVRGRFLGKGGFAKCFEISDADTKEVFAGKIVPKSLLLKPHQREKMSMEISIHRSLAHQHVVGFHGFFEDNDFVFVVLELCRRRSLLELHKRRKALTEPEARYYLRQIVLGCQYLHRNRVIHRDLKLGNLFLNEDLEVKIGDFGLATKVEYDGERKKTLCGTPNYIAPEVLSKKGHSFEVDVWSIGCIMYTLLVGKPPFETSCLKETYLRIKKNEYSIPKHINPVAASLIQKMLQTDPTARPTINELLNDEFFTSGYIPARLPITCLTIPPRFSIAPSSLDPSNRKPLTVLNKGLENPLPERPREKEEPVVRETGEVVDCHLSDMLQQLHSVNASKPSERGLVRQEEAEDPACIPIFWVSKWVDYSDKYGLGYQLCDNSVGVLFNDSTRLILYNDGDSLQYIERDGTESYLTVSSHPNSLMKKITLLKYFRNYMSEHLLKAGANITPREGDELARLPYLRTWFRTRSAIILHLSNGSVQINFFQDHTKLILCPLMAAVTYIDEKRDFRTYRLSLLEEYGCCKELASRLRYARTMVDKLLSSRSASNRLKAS

What follows are compounds tested against PLK1 (UniProt P53350) (assay: number of time points (of 5) at which kinase-Nluc abundance scored as decreased, DMSO-normalised (count); higher = more persistent destabilization). Details: K562; 2-18 h.

Q: `CN1C(=O)[C@@H](NC(=O)c2n[nH]c(Cc3ccccc3)n2)COc2ccccc21` (10 µM) was tested. Which “number of time points” value did it give?
A: 0

Q: For `O=C1NC(=Nc2c(Cl)cccc2Cl)S/C1=C\c1ccc2nccnc2c1` (2.5 µM), which “number of time points” value is on record?
A: 0

Q: How did the “number of time points” value turn out when `Cc1cccc(-c2[nH]c(C(C)(C)C)nc2-c2ccc3nccnc3c2)n1` (10 µM) was run?
A: 0

Q: Which “number of time points” value does the source give for `O=C(Nc1cccc(C(F)(F)F)c1)c1cccc2cc(Oc3cc(CO)ncn3)ccc12` (10 µM) here?
A: 0

Q: Which “number of time points” value does the source give for `CNc1cc(Nc2cccn(-c3ccccn3)c2=O)nn2c(C(=O)N[C@@H]3C[C@@H]3F)cnc12` (2.5 µM) here?
A: 0

Q: For `Cc1ccn2c(C(=O)C(=O)c3ccccc3)c(-c3ccccc3)nc2c1` (10 µM), which “number of time points” value is on record?
A: 0

Q: For `COc1cc(N2CCOCC2)ccc1Nc1ncc(Cl)c(Nc2ccccc2NS(C)(=O)=O)n1` (2.5 µM), which “number of time points” value is on record?
A: 0

Q: `O=C(NC1CCOCC1)c1ccc(-c2cc(-c3c[nH]nc3-c3ccccn3)ccn2)cc1` (10 µM) was tested. Which “number of time points” value did it give?
A: 0

Q: How did the “number of time points” value turn out when `O=C1NC(=O)/C(=C/c2ccc3nccc(-c4ccncc4)c3c2)S1` (10 µM) was run?
A: 0

Q: With `Cc1ncc(NC(=O)NC2c3ccccc3-c3ccccc32)c(-c2ccccc2)n1` (10 µM) as the compound, how does the “number of time points” value read?
A: 0

Q: How did the “number of time points” value turn out when `CC(C)C[C@@H](C(=O)Nc1ccn(C[C@@H](O)CO)n1)N1CC(Oc2ccccc2Cl)=CC1=O` [Dorzagliatin] (10 µM) was run?
A: 0

Q: Which “number of time points” value does the source give for `O=C1O[C@H]([C@@H](O)CO)C(O)=C1OP(=O)(O)O` [2-Phospho-L-ascorbic acid (trisodium)] (10 µM) here?
A: 0

Q: With `C[C@@H]1CC(=O)c2c(ccc3c2C(=O)c2cccc(O)c2C3=O)C1` [Ochromycinone] (10 µM) as the compound, how does the “number of time points” value read?
A: 0
